Test results: publication PMC5225067
No constants are given. Whether binding was seen depends on the method and setting. Some results given as binding are weak or reduced against the parent protein; the word gives no strength. Tags and fused reporters may be left off the sequences shown.

Experiments:
Experiment in all cases: two-hybrid; Gal4 system in mated PJ69-4 cells; quantitative GAL4 promoter-directed β-galactosidase expression; measured at 25 °C and 39 °C (heat stress); control: pBDC fusion with empty pADC
[1] = target: T1, human BD-UNC45-SM (S251A) (human) (UniProt Q8IWX7)
T1 sequence: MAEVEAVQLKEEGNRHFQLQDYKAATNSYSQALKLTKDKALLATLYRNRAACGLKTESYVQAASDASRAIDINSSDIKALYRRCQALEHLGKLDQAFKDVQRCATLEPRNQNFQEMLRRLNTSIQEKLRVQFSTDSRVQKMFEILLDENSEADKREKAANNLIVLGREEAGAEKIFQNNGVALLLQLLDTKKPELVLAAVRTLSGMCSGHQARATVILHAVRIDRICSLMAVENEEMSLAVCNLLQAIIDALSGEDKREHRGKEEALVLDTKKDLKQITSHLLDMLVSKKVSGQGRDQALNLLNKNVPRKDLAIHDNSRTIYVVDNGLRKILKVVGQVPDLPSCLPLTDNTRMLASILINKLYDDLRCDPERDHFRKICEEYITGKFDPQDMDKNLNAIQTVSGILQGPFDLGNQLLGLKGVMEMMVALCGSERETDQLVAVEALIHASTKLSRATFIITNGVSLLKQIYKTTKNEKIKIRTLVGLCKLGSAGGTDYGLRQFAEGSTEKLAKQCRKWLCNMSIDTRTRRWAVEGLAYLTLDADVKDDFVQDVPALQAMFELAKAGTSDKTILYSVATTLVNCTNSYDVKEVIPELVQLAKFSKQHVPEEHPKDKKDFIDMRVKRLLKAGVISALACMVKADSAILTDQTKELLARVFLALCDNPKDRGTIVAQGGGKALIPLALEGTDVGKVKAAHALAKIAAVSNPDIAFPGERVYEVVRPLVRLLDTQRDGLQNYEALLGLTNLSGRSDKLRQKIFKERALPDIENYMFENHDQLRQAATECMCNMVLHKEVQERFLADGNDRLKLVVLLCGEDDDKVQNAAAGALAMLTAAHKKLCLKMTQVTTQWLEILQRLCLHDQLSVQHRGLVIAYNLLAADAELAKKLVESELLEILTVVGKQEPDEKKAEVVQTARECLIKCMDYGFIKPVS

[2] = target: T2, She4-BD S18A (S. cerevisiae) (UniProt P51534)
T2 sequence: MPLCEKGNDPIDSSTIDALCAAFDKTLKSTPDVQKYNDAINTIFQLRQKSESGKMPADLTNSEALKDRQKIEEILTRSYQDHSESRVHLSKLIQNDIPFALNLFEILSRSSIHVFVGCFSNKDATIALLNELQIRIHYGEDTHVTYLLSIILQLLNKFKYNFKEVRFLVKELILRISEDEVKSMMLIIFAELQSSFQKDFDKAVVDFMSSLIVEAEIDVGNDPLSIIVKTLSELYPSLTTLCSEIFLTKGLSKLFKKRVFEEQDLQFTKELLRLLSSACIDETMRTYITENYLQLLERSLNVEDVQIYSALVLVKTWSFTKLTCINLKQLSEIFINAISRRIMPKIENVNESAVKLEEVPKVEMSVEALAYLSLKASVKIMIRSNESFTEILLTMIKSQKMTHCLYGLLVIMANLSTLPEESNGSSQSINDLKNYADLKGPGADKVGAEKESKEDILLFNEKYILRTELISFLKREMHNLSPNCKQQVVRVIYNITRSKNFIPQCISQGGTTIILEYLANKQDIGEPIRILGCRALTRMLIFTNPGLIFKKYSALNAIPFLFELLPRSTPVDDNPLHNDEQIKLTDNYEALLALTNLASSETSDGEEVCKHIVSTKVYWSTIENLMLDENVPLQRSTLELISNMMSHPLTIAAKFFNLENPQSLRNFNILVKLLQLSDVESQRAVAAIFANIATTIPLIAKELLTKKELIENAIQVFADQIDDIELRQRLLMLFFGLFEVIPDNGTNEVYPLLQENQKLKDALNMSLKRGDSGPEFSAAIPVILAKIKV

[3] = target: T3, She4-BD S18E (S. cerevisiae) (UniProt P51534)
T3 sequence: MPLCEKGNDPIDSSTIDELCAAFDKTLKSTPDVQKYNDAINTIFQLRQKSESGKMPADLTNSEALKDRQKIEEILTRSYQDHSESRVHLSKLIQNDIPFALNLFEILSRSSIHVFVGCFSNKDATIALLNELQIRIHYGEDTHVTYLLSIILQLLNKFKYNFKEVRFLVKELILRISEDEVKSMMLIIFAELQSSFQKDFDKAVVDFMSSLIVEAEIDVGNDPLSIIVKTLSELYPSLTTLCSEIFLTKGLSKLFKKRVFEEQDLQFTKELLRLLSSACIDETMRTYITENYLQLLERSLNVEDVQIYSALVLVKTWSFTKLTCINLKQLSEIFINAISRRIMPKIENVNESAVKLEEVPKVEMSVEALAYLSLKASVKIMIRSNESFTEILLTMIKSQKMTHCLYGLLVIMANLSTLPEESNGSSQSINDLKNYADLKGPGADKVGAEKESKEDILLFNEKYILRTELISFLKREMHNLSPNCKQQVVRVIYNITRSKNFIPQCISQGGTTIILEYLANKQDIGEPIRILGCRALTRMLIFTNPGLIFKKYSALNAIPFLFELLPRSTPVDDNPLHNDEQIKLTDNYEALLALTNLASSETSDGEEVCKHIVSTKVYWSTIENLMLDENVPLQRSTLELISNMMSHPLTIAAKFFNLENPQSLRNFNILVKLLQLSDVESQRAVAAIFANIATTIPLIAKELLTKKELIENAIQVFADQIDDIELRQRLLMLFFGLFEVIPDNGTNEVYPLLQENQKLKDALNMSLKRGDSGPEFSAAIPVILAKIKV

Measured: binding

B1: AD-Myo5 (protein, UniProt Q04439 1-1219)
chain: MAILKRGARKKVHQEPAKRSANIKKATFDSSKKKEVGVSDLTLLSKISDEAINENLKKRFLNATIYTYIGHVLISVNPFRDLGIYTDAVMNEYKGKNRLEVPPHVFAIAESMYYNMKSYNENQCVIISGESGAGKTEAAKRIMQYIAAASSTHTESIGKIKDMVLATNPLLESFGCAKTLRNNNSSRHGKYLEIKFNNQFEPCAGNITNYLLEKQRVVSQIKNERNFHIFYQFTKGASDAYRQTFGVQKPEQYVYTAAAGCISAETIDDLQDYQETLKAMRVIGLGQEEQDQIFRMLAAILWIGNVSFIENEEGNAQVRDTSVTDFVAYLLQIDSQLLIKSLVERIMETNHGMKRGSVYHVPLNIVQADAVRDALAKAIYNNLFDWIVSRVNKSLQAFPGAEKSIGILDIYGFEIFEHNSFEQICINYVNEKLQQIFIQLTLKSEQETYEREKIQWTPIKYFDNKVVCDLIEARRPPGIFAAMNDSVATAHADSNAADQAFAQRLNLFTTNPHFDLRSNKFVIKHYAGDVTYDIDGITDKNKDQLQKDLVELIGTTTNTFLATIFPDTVDRESKRRPPTAGDKIIKSANDLVETLSKAQPSYIRTIKPNETKSPNDYDDRQVLHQIKYLGLQENVRIRRAGFAYRQVFEKFVERFYLLSPHCSYAGDYTWQGDTLDAVKYILQDSSIPQQEYQLGVTSVFIKTPETLFALEHMRDRYWHNMAARIQRAWRRFLQRRIDAATKIQRTIRERKEGNKYEKLRDYGTKVLGGRKERRSMSLLGYRAFMGDYLSCNESKSKGAYIKRQVSIKEKVIFSIHGEALHTKFGRSAQRLKKTFLLTPTTLYIVGQTLVQNAMTYTQDYKIDVRNIQAVSLTNLQDDWVAIKLASSGQPDPLINTYFKTELITHLKRLNDKIQIKIGSAIEYQKKPGKLHSVKCQINESAPKYGDIYKSSTISVRRGNPPNSQVHKKPRKKSSISSGYHASSSQATRRPVSIAAAQHVPTAPASRHSKKPAPPPPGMQNKAATRRSVPNPASTLTASQSNARPSPPTAATRATPAATPAAAAMGSGRQANIPPPPPPPPPSSKPKEPMFEAAYDFPGSGSPSELPLKKGDVIYITREEPSGWSLGKLLDGSKEGWVPTAYMKPHSGNNNIPTPPQNRDVPKPVLNSVQHDNTSANVIPAAAQASLGDGLANALAARANKMRLESDDEEANEDEEEDDW
binds: all assays above
